From publication PMC7819943, “Rice protein-binding microarrays: a tool to detect cis-acting elements near promoter regions in rice”
Some of the results follow.

Amino acid sequences for entries named in this document (tags omitted).
UniProt Q0JBA9, entry or part of it: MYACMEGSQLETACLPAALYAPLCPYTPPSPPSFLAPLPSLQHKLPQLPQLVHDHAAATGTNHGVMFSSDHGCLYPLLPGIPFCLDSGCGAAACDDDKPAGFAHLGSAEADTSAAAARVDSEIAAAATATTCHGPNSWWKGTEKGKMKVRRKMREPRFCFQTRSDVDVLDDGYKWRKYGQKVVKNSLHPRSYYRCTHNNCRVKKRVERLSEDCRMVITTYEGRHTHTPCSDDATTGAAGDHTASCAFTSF

biological target: OsWRKY34 (Oryza sativa, UniProt Q0JBA9 1-250); test: protein-binding microarray (RPBM); PBS, 2% BSA, 51.3 ng/ul salmon testes DNA, 50 uM zinc acetate, 200 nM TF, 25 C, 1 h; high values mean tight binding; details: protein: recombinant; tags: N-terminal polyhistidine and DsRed monomer fusion (pET32a); label: CyDye5-dUTP incorporated in the synthesized complementary strand; 3' TTTTT single-stranded linker to array surface; dsDNA, one strand shown
In short: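 Transcription factors were each fused at the N-terminus to a polyhistidine tag plus DsRed and expressed in E. coli BL21-CodonPlus before Ni–NTA purification. Binding to a double-stranded custom Agilent array was carried out with 200 nM protein at 25 °C for 1 h in PBS, 2% BSA, salmon testes DNA and 50 µM zinc acetate. The binding signal is per-feature fluorescence intensity, in arbitrary units, on an Axon 4000B scanner.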

Row | Sequence | binding signal
1 | TGTTTAGTTCCAAAGTTTTTTTTTCCAAACTTCCAACTTTCGGAGTCACCTAGTGCAG | 8220 fluorescence intensity (a.u.)
2 | TCGGCTTGGTGGGGCTGGAGAACGTCTTTTCTCAATTGTGCGGAGTCACCTAGTGCAG | 22000 fluorescence intensity (a.u.)
3 | TTTACGTCTCTCAAACCTCATATACTCTGGTCGTCTCTCGCGGAGTCACCTAGTGCAG | 8190 fluorescence intensity (a.u.)
4 | AAATCTGTGTTTCCCAACTTTTGTTTTCTAGTTTATTTTTCGGAGTCACCTAGTGCAG | 10400 fluorescence intensity (a.u.)
5 | AACGCCTCGCCACCACATGATTTCGCCTGCCTGTTGTTCTCGGAGTCACCTAGTGCAG | 9090 fluorescence intensity (a.u.)
6 | CTTCTCTTTGTTTTCTTGTTTGCTTGCTTGGTGTAAAGAACGGAGTCACCTAGTGCAG | 16100 fluorescence intensity (a.u.)
7 | ATTTTTTTTTTTGTTATTGACCAGACATATGGCTAATATTCGGAGTCACCTAGTGCAG | 10800 fluorescence intensity (a.u.)
8 | CCTACTACTCCTACCTGCTTCAGCTTTGCTTCCTGCGCATCGGAGTCACCTAGTGCAG | 9610 fluorescence intensity (a.u.)
9 | ATTTTGTTTCTCCTTGGTTGGTTTTGCTTCACCTAGATCACGGAGTCACCTAGTGCAG | 11200 fluorescence intensity (a.u.)
10 | GTCCTTAACGACGTCGTTGACTTTTCACATAACATTATACCGGAGTCACCTAGTGCAG | 17300 fluorescence intensity (a.u.)
11 | CTTTATACGTGACTTGTTTTTTTAATTTTTTATATAATTTCGGAGTCACCTAGTGCAG | 9980 fluorescence intensity (a.u.)
12 | AACGTTTGACCGTCCGCCTTATATGAAATTTTTTATAATTCGGAGTCACCTAGTGCAG | 8230 fluorescence intensity (a.u.)
13 | CATTTTCACTCCCTACTCAACAAACTGGACTGTTTAGCTACGGAGTCACCTAGTGCAG | 8150 fluorescence intensity (a.u.)
14 | ACGAATTTGAACAAACTCTCTATCTAGATTCATTGACCTTCGGAGTCACCTAGTGCAG | 8450 fluorescence intensity (a.u.)
15 | GTTGGGGTGGTTGGTTTGGGGATCCCCTGTTGTACCCTGCCGGAGTCACCTAGTGCAG | 10700 fluorescence intensity (a.u.)
16 | ACCGGCTACCTCGTCCATCCGTCGTCCTCCGCGACCGATCCGGAGTCACCTAGTGCAG | 11100 fluorescence intensity (a.u.)
17 | CAGCCTTGCGCTTGCACCTCTCAAAATTTTTCTATTCTTTCGGAGTCACCTAGTGCAG | 8540 fluorescence intensity (a.u.)
18 | AGGCCAATGCAGGATCCTGCCCAACCTGTTAGCTGTCTCCCGGAGTCACCTAGTGCAG | 8280 fluorescence intensity (a.u.)
19 | TGCTGTGCCCGCGCTGTCCATCCCGATCCTGTCGTTCAGGCGGAGTCACCTAGTGCAG | 10700 fluorescence intensity (a.u.)
20 | AGGGTGTCAAAGTATACTTTTTTTTCTTTCATCTCTAAACCGGAGTCACCTAGTGCAG | 10500 fluorescence intensity (a.u.)
21 | CATTTCTGTTCCATTTCTCATCCATCGCGCGTCGTCTCCACGGAGTCACCTAGTGCAG | 14300 fluorescence intensity (a.u.)

Part of the list above, as a markdown table:

| Row | Sequence | binding signal |
| --- | --- | --- |
| 8 | CCTACTACTCCTACCTGCTTCAGCTTTGCTTCCTGCGCATCGGAGTCACCTAGTGCAG | 9610 fluorescence intensity (a.u.) |
| 9 | ATTTTGTTTCTCCTTGGTTGGTTTTGCTTCACCTAGATCACGGAGTCACCTAGTGCAG | 11200 fluorescence intensity (a.u.) |
| 10 | GTCCTTAACGACGTCGTTGACTTTTCACATAACATTATACCGGAGTCACCTAGTGCAG | 17300 fluorescence intensity (a.u.) |
| 11 | CTTTATACGTGACTTGTTTTTTTAATTTTTTATATAATTTCGGAGTCACCTAGTGCAG | 9980 fluorescence intensity (a.u.) |
| 12 | AACGTTTGACCGTCCGCCTTATATGAAATTTTTTATAATTCGGAGTCACCTAGTGCAG | 8230 fluorescence intensity (a.u.) |
| 13 | CATTTTCACTCCCTACTCAACAAACTGGACTGTTTAGCTACGGAGTCACCTAGTGCAG | 8150 fluorescence intensity (a.u.) |
| 14 | ACGAATTTGAACAAACTCTCTATCTAGATTCATTGACCTTCGGAGTCACCTAGTGCAG | 8450 fluorescence intensity (a.u.) |
| 15 | GTTGGGGTGGTTGGTTTGGGGATCCCCTGTTGTACCCTGCCGGAGTCACCTAGTGCAG | 10700 fluorescence intensity (a.u.) |
| 16 | ACCGGCTACCTCGTCCATCCGTCGTCCTCCGCGACCGATCCGGAGTCACCTAGTGCAG | 11100 fluorescence intensity (a.u.) |
| 17 | CAGCCTTGCGCTTGCACCTCTCAAAATTTTTCTATTCTTTCGGAGTCACCTAGTGCAG | 8540 fluorescence intensity (a.u.) |
| 18 | AGGCCAATGCAGGATCCTGCCCAACCTGTTAGCTGTCTCCCGGAGTCACCTAGTGCAG | 8280 fluorescence intensity (a.u.) |
| 19 | TGCTGTGCCCGCGCTGTCCATCCCGATCCTGTCGTTCAGGCGGAGTCACCTAGTGCAG | 10700 fluorescence intensity (a.u.) |
| 20 | AGGGTGTCAAAGTATACTTTTTTTTCTTTCATCTCTAAACCGGAGTCACCTAGTGCAG | 10500 fluorescence intensity (a.u.) |

Following part:

Row | Sequence | binding signal
22 | AGTCCTGCATCTTCACAAATCCCACACAACCAAGCCGCCGCGGAGTCACCTAGTGCAG | 8780 fluorescence intensity (a.u.)
23 | TTTTATTTTTTCATTGGATTTTCGCGGGCGGGCCATTGCCCGGAGTCACCTAGTGCAG | 14600 fluorescence intensity (a.u.)
24 | TCTCGCGCGCGCTCACTTGCTCACGGCCCCGCCGACCTCACGGAGTCACCTAGTGCAG | 8360 fluorescence intensity (a.u.)
25 | CTTATACATTGGGTTGAGGGTTTTTTTGGTTGAGTTCGGCCGGAGTCACCTAGTGCAG | 9220 fluorescence intensity (a.u.)
26 | GCAAAGTTGTTTCCACCTGATTTCCCTGCAATTGGATTCTCGGAGTCACCTAGTGCAG | 8360 fluorescence intensity (a.u.)
27 | CTTTCGGCTTCGGTGCTGCTGCTGGCGCCTCATTGCCCGTCGGAGTCACCTAGTGCAG | 8390 fluorescence intensity (a.u.)
28 | CCCTCGTCCTGCCGAAGCTTTAGTCAACATTTCCTTGGATCGGAGTCACCTAGTGCAG | 10300 fluorescence intensity (a.u.)
29 | CACCGTTGACAATATTTACCTATACTTATATCGATTTGTGCGGAGTCACCTAGTGCAG | 9120 fluorescence intensity (a.u.)
30 | GAAGACAGTGACATCATGTTCATCCACGATTACCACCTCTCGGAGTCACCTAGTGCAG | 8220 fluorescence intensity (a.u.)
31 | TCTATACTCTACTTCTAATATTCCTTGTTTTTAATTCCGACGGAGTCACCTAGTGCAG | 8950 fluorescence intensity (a.u.)
32 | GGGTGGGGCCCGCATGTCAACCTCACAACGCTCTCCGAGGCGGAGTCACCTAGTGCAG | 9420 fluorescence intensity (a.u.)
33 | CGGTGTTAGGGGTCGTTTGTCCGGTATGTATAGTTTATGGCGGAGTCACCTAGTGCAG | 8350 fluorescence intensity (a.u.)
34 | AGGAGTTGTTTTTCATTTCGTATAACATATGTCCCTTTTTCGGAGTCACCTAGTGCAG | 10500 fluorescence intensity (a.u.)
35 | AAAGAAGGAAATCATCACACTCTTATGCGCTGTTTAGTTCCGGAGTCACCTAGTGCAG | 9430 fluorescence intensity (a.u.)
36 | TTTTCCGTCACATCGTTCCAATTTCAACCAAACTTCCAATCGGAGTCACCTAGTGCAG | 11400 fluorescence intensity (a.u.)
37 | TTCCTATAAAATTCCTTCGTTCCAAGAAAGCCGTTGACCACGGAGTCACCTAGTGCAG | 11900 fluorescence intensity (a.u.)
38 | CCATACGCCGGCACGCGTTCCCAACACCGCAAGCCATTCTCGGAGTCACCTAGTGCAG | 8540 fluorescence intensity (a.u.)
39 | AGACTGCCTATGTTTTGATTTCCATTTGTCTTAACGTTTCCGGAGTCACCTAGTGCAG | 8190 fluorescence intensity (a.u.)
40 | ACTGGTCATTTCCTCTATTAAAGTACTATCCATTTTAGCCCGGAGTCACCTAGTGCAG | 8220 fluorescence intensity (a.u.)
41 | ACCACTCAAAAACTCTCTCTCTCTACCCAAACAGGTTTTGCGGAGTCACCTAGTGCAG | 8600 fluorescence intensity (a.u.)
42 | TTTTTCCGCTGCTGCTGCTTTTGTTTCGGTGTGAGGACTACGGAGTCACCTAGTGCAG | 8720 fluorescence intensity (a.u.)
